# PubChem BioAssay AID248 (DTP/NCI, 2004)
# The list is a part of this screen's results and no random one: it gathers tests that were run many times, whatever their T/C, doses with no T/C, and many T/C values between a quarter and a half above the control. Other doses and runs of a compound stand elsewhere. T/C: endpoint of the treated group in % of that of the vehicle group. For survival time, this PubChem deposit counts one and a half times the control or more as active, and values a quarter to a half above the control carry no call in these data; other NCI protocols may use other cut-offs. Schedules are NCI's codes, read here as Q, the interval in days (D) or hours (H), X, the number of doses. Signs of the kind (2×) stand for listed records that agree. Some entries hold several experiments; the results are listed from low to high.
# Tested on: L1210 leukemia ip in BDF1 mice, survival T/C
# Assay: NCI In Vivo Anticancer Drug Screen. Data for tumor model L1210 Leukemia (intraperitoneal) in B6D2F1 (BDF1) mice
# Conditions: T/C endpoint: mean survival time, higher T/C = longer survival
structure (smiles),measurement,setting,value
O=C1C=CN(C2OC(CO)C(O)C2O)C(=O)C1 (configuration not stated),T/C,"dose: 3.0 mg/kg/injection, schedule: Q01DX009 (ip), vehicle: saline",135 % of control
same,T/C,"dose: 6.25 mg/kg/injection, schedule: Q01DX009 (ip), vehicle: saline",127 % of control
same,T/C,"dose: 7.2 mg/kg/injection, schedule: Q01DX009 (ip), vehicle: saline",129 % of control
same,T/C,"dose: 11.0 mg/kg/injection, schedule: Q01DX009 (ip), vehicle: saline",125 % of control
same,T/C,"dose: 12.5 mg/kg/injection, schedule: Q01DX009 (ip), vehicle: saline",127 % of control
same,T/C,"dose: 17.0 mg/kg/injection, schedule: Q01DX009 (ip), vehicle: saline",128 % of control
same,T/C,"dose: 17.0 mg/kg/injection, schedule: Q03HX024 (ip), vehicle: saline",137 % of control
same,T/C,"dose: 20.0 mg/kg/injection, schedule: Q01DX009 (ip), vehicle: saline, evaluated on day 5",106 and 118 % of control
same,T/C,"dose: 20.0 mg/kg/injection, schedule: Q01DX009 (ip), vehicle: saline, evaluated on day 45","106, 118, 119, 123, 133 % of control"
same,T/C,"dose: 20.0 mg/kg/injection, schedule: Q01DX009 (ip), vehicle: saline, evaluated on day 60",118 % of control
same,T/C,"dose: 22.0 mg/kg/injection, schedule: Q01DX009 (ip), vehicle: saline, evaluated on day 5",126 % of control
same,T/C,"dose: 22.0 mg/kg/injection, schedule: Q01DX009 (ip), vehicle: saline, evaluated on day 60",127 % of control
same,T/C,"dose: 22.0 mg/kg/injection, schedule: Q03HX024 (ip), vehicle: saline",126 % of control
same,T/C,"dose: 25.0 mg/kg/injection, schedule: Q01DX009 (ip), vehicle: saline, evaluated on day 30",136 % of control
same,T/C,"dose: 25.0 mg/kg/injection, schedule: Q01DX009 (ip), vehicle: saline, evaluated on day 45",125 and 130 % of control
same,T/C,"dose: 26.0 mg/kg/injection, schedule: Q03HX024 (ip), vehicle: saline",136 % of control
same,T/C,"dose: 26.4 mg/kg/injection, schedule: Q01DX009 (ip), vehicle: saline",125 % of control
same,T/C,"dose: 29.0 mg/kg/injection, schedule: Q01DX009 (ip), vehicle: saline",128 and 129 % of control
same,T/C,"dose: 30.0 mg/kg/injection, schedule: Q01DX009 (ip), vehicle: saline, evaluated on day 5",103 and 121 % of control
same,T/C,"dose: 30.0 mg/kg/injection, schedule: Q01DX009 (ip), vehicle: saline, evaluated on day 45","103, 126, 135 % of control"
same,T/C,"dose: 30.0 mg/kg/injection, schedule: Q01DX009 (ip), vehicle: saline, evaluated on day 60",121 % of control
same,T/C,"dose: 33.0 mg/kg/injection, schedule: Q01DX009 (ip), vehicle: saline, evaluated on day 5",130 % of control
same,T/C,"dose: 33.0 mg/kg/injection, schedule: Q01DX009 (ip), vehicle: saline, evaluated on day 60",130 and 139 % of control
same,T/C,"dose: 33.0 mg/kg/injection, schedule: Q03HX024 (ip), vehicle: saline",138 % of control
same,T/C,"dose: 37.5 mg/kg/injection, schedule: Q01DX009 (ip), vehicle: saline",126 and 134 % of control
same,T/C,"dose: 39.0 mg/kg/injection, schedule: Q03HX024 (ip), vehicle: saline",145 % of control
same,T/C,"dose: 39.6 mg/kg/injection, schedule: Q01DX009 (ip), vehicle: saline",134 % of control
same,T/C,"dose: 43.0 mg/kg/injection, schedule: Q01DX009 (ip), vehicle: saline",134 and 140 % of control
same,T/C,"dose: 44.0 mg/kg/injection, schedule: Q01DX009 (ip), vehicle: saline",134 % of control
same,T/C,"dose: 45.0 mg/kg/injection, schedule: Q01DX009 (ip), vehicle: saline, evaluated on day 5",107 and 116 % of control
same,T/C,"dose: 45.0 mg/kg/injection, schedule: Q01DX009 (ip), vehicle: saline, evaluated on day 45",107 and 130 % of control (2×)
same,T/C,"dose: 45.0 mg/kg/injection, schedule: Q01DX009 (ip), vehicle: saline, evaluated on day 60",116 % of control
same,T/C,"dose: 50.0 mg/kg/injection, schedule: Q01DX009 (ip), vehicle: saline, evaluated on day 5",130 % of control
same,T/C,"dose: 50.0 mg/kg/injection, schedule: Q01DX009 (ip), vehicle: saline, evaluated on day 30",130 % of control
same,T/C,"dose: 50.0 mg/kg/injection, schedule: Q01DX009 (ip), vehicle: saline, evaluated on day 45",129 % of control (2×)
same,T/C,"dose: 50.0 mg/kg/injection, schedule: Q01DX009 (ip), vehicle: saline, evaluated on day 60",130 and 135 % of control
same,T/C,"dose: 50.0 mg/kg/injection, schedule: Q03HX024 (ip), vehicle: saline",132 % of control
same,T/C,"dose: 58.0 mg/kg/injection, schedule: Q03HX024 (ip), vehicle: saline",145 % of control
same,T/C,"dose: 64.0 mg/kg/injection, schedule: Q01DX009 (ip), vehicle: saline",132 and 134 % of control
same,T/C,"dose: 67.0 mg/kg/injection, schedule: Q01DX009 (ip), vehicle: saline, evaluated on day 5",109 and 122 % of control
same,T/C,"dose: 67.0 mg/kg/injection, schedule: Q01DX009 (ip), vehicle: saline, evaluated on day 45","109, 134, 135, 142 % of control"
same,T/C,"dose: 67.0 mg/kg/injection, schedule: Q01DX009 (ip), vehicle: saline, evaluated on day 60",122 and 134 % of control
same,T/C,"dose: 75.0 mg/kg/injection, schedule: Q01DX009 (ip), vehicle: saline, evaluated on day 5",138 % of control
same,T/C,"dose: 75.0 mg/kg/injection, schedule: Q01DX009 (ip), vehicle: saline, evaluated on day 45",135 % of control (2×)
same,T/C,"dose: 75.0 mg/kg/injection, schedule: Q01DX009 (ip), vehicle: saline, evaluated on day 60",139 % of control
same,T/C,"dose: 75.0 mg/kg/injection, schedule: Q03HX024 (ip), vehicle: saline",137 % of control
same,T/C,"dose: 96.0 mg/kg/injection, schedule: Q01DX009 (ip), vehicle: saline",135 and 149 % of control
same,T/C,"dose: 100.0 mg/kg/injection, schedule: Q01DX009 (ip), vehicle: saline, evaluated on day 30",142 and 146 % of control
same,T/C,"dose: 100.0 mg/kg/injection, schedule: Q01DX009 (ip), vehicle: saline, evaluated on day 45","131, 135, 137 % of control (3×)"
same,T/C,"dose: 100.0 mg/kg/injection, schedule: Q01DX009 (ip), vehicle: saline, evaluated on day 60",131 % of control
same,T/C,"dose: 125.0 mg/kg/injection, schedule: Q01DX005 (ip), vehicle: other",135 % of control
same,T/C,"dose: 125.0 mg/kg/injection, schedule: Q01DX009 (ip), vehicle: saline",130 and 137 % of control
same,T/C,"dose: 132.0 mg/kg/injection, schedule: Q01DX009 (ip), vehicle: saline",136 and 147 % of control
same,T/C,"dose: 150.0 mg/kg/injection, schedule: Q01DX009 (ip), vehicle: saline, evaluated on day 45","124, 129, 164 % of control"
same,T/C,"dose: 150.0 mg/kg/injection, schedule: Q01DX009 (ip), vehicle: saline, evaluated on day 60",132 % of control
same,T/C,"dose: 200.0 mg/kg/injection, schedule: Q01DX009 (ip), vehicle: saline","145, 150, 151, 158 % of control"
same,T/C,"dose: 225.0 mg/kg/injection, schedule: Q01DX009 (ip), vehicle: saline, evaluated on day 45",127 % of control
